Reference: PubChem BioAssay AID2517 (National Center for Advancing Translational Sciences (NCATS), 2010)
About 1,200 (0.34%) of roughly 350,000 compounds were called active. The inconclusive results got no clear call from the source; some entries with a clear call stand among them for comparison. Calls follow the shape of the dose curve; as a rule, active = well fitted inhibition curve with a large enough effect; inconclusive = small, poorly fitted or top-dose-only effect; inactive = no such curve, though single readings can be large or run the other way. Where the call is inconclusive, the potency comes from a doubtful curve fit.
Also: nearly all actives have a fitted effect of over 55% in size.
Potency is read from the fitted curve at half-maximal effect.

By UniProt entry, the sequences of proteins in these tests, tags left out.
UniProt P27695, whole entry, looked up: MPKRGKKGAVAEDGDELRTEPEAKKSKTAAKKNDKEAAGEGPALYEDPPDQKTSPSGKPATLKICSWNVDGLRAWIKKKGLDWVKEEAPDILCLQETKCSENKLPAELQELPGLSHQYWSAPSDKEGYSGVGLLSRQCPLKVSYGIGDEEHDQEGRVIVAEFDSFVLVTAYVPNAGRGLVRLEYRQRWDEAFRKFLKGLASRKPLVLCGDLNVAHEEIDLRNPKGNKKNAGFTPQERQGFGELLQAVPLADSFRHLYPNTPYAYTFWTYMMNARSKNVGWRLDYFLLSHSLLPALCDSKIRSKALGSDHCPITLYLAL

Each molecule was assayed against DNA repair nuclease/redox regulator APEX1 (Homo sapiens) (UniProt P27695) (assay: qHTS Assay for Inhibitors of the Human Apurinic/apyrimidinic Endonuclease 1 (APE1)). Conditions: recombinant APE1, TAMRA/BHQ-2 abasic DNA cleavage fluorescence; series mostly up to 65.8 µM.
Method in brief: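 Activity was derived from the fluorescence gain between first and third kinetic reads (60 s intervals, ex 525/em 598 nm) after 50 nM THF-abasic TAMRA/BHQ-2 duplex was added to 0.75 nM APE1 preincubated 15 min with compound.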
`CCOC(=O)C1=C(N)n2c(s/c(=C/c3ccco3)c2=O)=C(C(=O)OC)C1c1ccco1` (stereo unspecified) was tested, and the Potency was inconclusive: 35.5 µM [inhibitor, single point]. In the case of `O=C(NC1CCCCCCC1)c1ccc(CNc2c(N3CCOCC3)c(=O)c2=O)cc1`, the Potency was inconclusive: 25.1 µM [inhibitor, partial curve, poor fit]. For `O=C(COc1ccccc1[N+](=O)[O-])N/N=C/c1ccc(O)c([N+](=O)[O-])c1`, the Potency was “inactive”. For `CN(C(=O)c1cc2nc(-c3ccco3)cc(C(F)(F)F)n2n1)C1CCCCC1`, the Potency was inconclusive: 44.7 µM [inhibitor, single point]. With `Cc1onc(-c2ccccc2)c1NC(=O)N(Cc1ccccc1)C(C)C` the Potency was inconclusive: 3.16 µM [inhibitor, single point]. In the case of `Cc1c(C2C(C#N)=C(N)N(c3ccccc3C#N)C3=C2C(=O)CCC3)cnn1C` (stereo unspecified), the Potency was inconclusive: 7.08 µM [inhibitor, single point]. In the case of `COc1c2ccoc2c(OC)c2oc(=O)ccc12`, the Potency was inconclusive: 15.8 µM [inhibitor, partial curve, poor fit]. With `CCN1C(=O)/C(=C/c2cccs2)S/C1=N\S(=O)(=O)c1ccc(C)cc1` the Potency was “inactive”. For `CC(=O)c1sc(-c2ccccn2)nc1C`, the Potency was inconclusive: 50.1 µM [inhibitor, single point]. In the case of `Cc1ccccc1NC(=S)NC(=O)/C=C/c1ccco1`, the Potency was “inactive”. For `CCCN(CCC)Cc1cc(=O)oc2cc3c(cc12)CCC3`, the Potency was inconclusive: 7.08 µM [inhibitor, single point]. For `CCOc1ccccc1N/C=C(\C#N)c1nc2ccccc2n1C`, the Potency was inconclusive: 56.2 µM [inhibitor, partial curve, poor fit]. With `Nc1ncc2c(n1)CC(c1ccco1)CC2=O` (stereo unspecified) the Potency was inconclusive: 44.7 µM [inhibitor, single point]. With `Cc1ccc(N=C2S/C(=C\c3cn(CC(=O)O)c4ccccc34)C(=O)N2C)cc1` the Potency was inconclusive: 22.4 µM [inhibitor, single point]. For `CC#C[C@]1(O)CC[C@H]2C3CCC4=CC(=O)CCC4=C3[C@@H](c3ccc(N(C)C)cc3)C[C@@]21C` (stereo partly specified), the Potency was “inactive”. With `CCN(CC)C(=O)CSc1nc2ccccc2c(=O)n1-c1cccc(OC)c1` the Potency was “inactive”. In the case of `CN(C)c1ncc2nc(-c3ccccc3)c(=O)n(C3CC3)c2n1`, the Potency was “inactive”. `NC(=O)[C@@H]1CCCNc2c(I)cc([N+](=O)[O-])cc2C(=O)N[C@@H](CO)C(=O)NCC(=O)N1` was tested, and the Potency was inconclusive: 3.55 µM [inhibitor, single point]. `O=C(CSCc1cnn(-c2ccccc2)c1-n1cccc1)NCCN1CCOCC1` was tested, and the Potency was inconclusive: 0.891 µM [inhibitor, single point]. In the case of `Oc1c(C(c2ccco2)N2CCOCC2)sc2ncnn12` (stereo unspecified), the Potency was inconclusive: 39.8 µM [inhibitor, single point]. `O=[N+]([O-])c1cc(CN2CCN(c3ccccc3)CC2)c(O)c2ncccc12` was tested, and the Potency was “inactive”. In the case of `Cc1ccc(Nc2nc3nonc3[nH]c2=O)cc1Cl`, the Potency was inconclusive: 28.2 µM [inhibitor, single point]. With `COC(=O)C1=C(C)N(Cc2ccccc2)[C@]23O[C@](C(=O)OC)(C(=O)N2C1c1ccccc1)C1C(=O)N(C)C(=O)C13` (stereo partly specified) the Potency was inconclusive: 3.55 µM [inhibitor, single point]. With `COc1ccc2c(c1OC)C(Cc1ccccc1)N1CCc3cc4c(cc3C1C2)OCO4` (stereo unspecified) the Potency was “inactive”. In the case of `O=C(c1ccc(Cl)cc1)N1CCCC(C(=O)N2CCc3ccccc3C2)C1` (stereo unspecified), the Potency was “inactive”. `CCC(=O)NC1(C(F)(F)F)C(=O)Nc2c1c(=O)[nH]c(=O)n2Cc1ccco1` (stereo unspecified) was tested, and the Potency was inconclusive: 39.8 µM [inhibitor, single point]. For `COc1cc2cc(Oc3ccc4ccc(=O)oc4c3)c(=O)oc2cc1O`, the Potency was inconclusive: 44.7 µM [inhibitor, single point]. With `Cc1ccc(-n2c(-c3ccco3)nc3c(cnn3-c3ccc(C)cc3)c2=O)cc1` the Potency was inconclusive: 0.891 µM [inhibitor, single point]. For `COc1cccc(Cl)c1NC(=O)N1CCc2c([nH]c3ccccc23)C1C(F)(F)F` (stereo unspecified), the Potency was inconclusive: 7.08 µM [inhibitor, full curve, poor fit]. In the case of `Cc1nc2ccccc2c(=O)n1-c1cccc(NC(=O)c2cccs2)c1`, the Potency was “inactive”. `COc1ccc(/C=C/C(=O)NCCSCc2ccco2)cc1OC` was tested, and the Potency was inconclusive: 31.6 µM [inhibitor, partial curve]. For `O=C(Cc1ccccc1)NC(NNc1ccccc1)(C(F)(F)F)C(F)(F)F`, the Potency was inconclusive: 44.7 µM [inhibitor, single point]. `Cc1cc(C2(c3ccc(O)c(C)c3)OC(=O)c3ccccc32)ccc1O` was tested, and the Potency was inconclusive: 31.6 µM [inhibitor, partial curve]. In the case of `Cc1nn2cnnc2c(C)c1Cc1ccc(Cl)cc1`, the Potency was inconclusive: 8.44 µM [inhibitor, single point]. For `COc1cc(Cl)ccc1NC(=S)N(CCCN1CCOCC1)Cc1cn(C)c2ccccc12`, the Potency was inconclusive: 44.7 µM [inhibitor, single point]. For `CC1C=CC(C)C(C(=O)O)C1C(=O)O` (stereo unspecified), the Potency was inconclusive: 10 µM [inhibitor, partial curve]. For `c1cncc(CNc2nc(-c3ccoc3)nc3ccccc23)c1`, the Potency was “inactive”. With `CC(C)(C)OC(=O)NCCCC[C@H](NC(=O)c1nc[nH]c1C(=O)NCc1ccc(CNC(=O)OC(C)(C)C)cc1)C(=O)OC(C)(C)C` the Potency was inconclusive: 16.8 µM [inhibitor, partial curve]. With `COc1cccc(-n2nnnc2SCC(=O)Nc2ccc3c(c2)OCCO3)c1` the Potency was “inactive”. With `COc1ccc2ccccc2c1/C=N/NC(=S)Nc1cc(S(=O)(=O)N2CCOCC2)ccc1N1CCOCC1` the Potency was “inactive”. In the case of `COC(=O)c1sccc1NC(=O)CC1C(=O)NCCN1C(=O)c1ccc(F)cc1` (stereo unspecified), the Potency was inconclusive: 7.94 µM [inhibitor, single point]. With `COc1cc(NC(=O)Cn2cnc3sc(C)c(S(=O)(=O)N4CCN(C)CC4)c3c2=O)cc(OC)c1OC` the Potency was inconclusive: 20 µM [inhibitor, single point]. In the case of `CN(C)CCCN1c2ccccc2Sc2ccccc21`, the Potency was inconclusive: 2.82 µM [inhibitor, partial curve]. For `COc1ccc(NC(=O)c2c[nH]n3c(=O)cc(C4CCN(C(=O)OC(C)(C)C)CC4)nc23)cc1Cl`, the Potency was inconclusive: 35.5 µM [inhibitor, single point]. `O=S(=O)(Nc1ccc(-c2nnc(SCc3ccc(Cl)cc3)o2)cc1)c1ccccc1` was tested, and the Potency was inconclusive: 0.0141 µM [inhibitor, full curve, poor fit]. In the case of `O=C(Nc1ccc(F)cc1)c1nc[nH]c1C(=O)Nc1ccc([N+](=O)[O-])cc1`, the Potency was inconclusive: 44.7 µM [inhibitor, single point]. In the case of `O=C(/C=C/c1ccc(O)c(O)c1)O[C@@H](C(=O)O)[C@@H](OC(=O)/C=C/c1ccc(O)c(O)c1)C(=O)O`, the Potency was inconclusive: 3.98 µM [inhibitor, full curve]. With `O=C(Nc1cccc(F)c1)C1C2C=CC3(CN(CCCN4CCOCC4)C(=O)C13)O2` (stereo unspecified) the Potency was inconclusive: 8.91 µM [inhibitor, partial curve]. `Nc1[nH]n2c(=O)c3c(nc2c1N=Nc1ccccc1)CCCC3` was tested, and the Potency was “inactive”. In the case of `Nc1nc2c(ncn2[C@H]2C[C@H](O)[C@@H](CO)O2)c(=O)[nH]1`, the Potency was “inactive”. For `CSc1ccc(C=NNc2ccc(S(=O)(=O)Nc3ccccc3C(=O)O)cc2[N+](=O)[O-])cc1`, the Potency was active: 8.44 µM. In the case of `CC(=O)NC1=NN(C(C)=O)C(C)(c2ccccc2)S1` (stereo unspecified), the Potency was active: 2.82 µM. With `C[N+]1=C(/C=C/Nc2ccccc2Cl)C(C)(C)c2ccccc21` the Potency was inconclusive: 28.2 µM [inhibitor, single point]. For `C[C@H](NC(=O)c1nc[nH]c1C(=O)NCc1ccc(CNC(=O)OC(C)(C)C)cc1)C(=O)OC(C)(C)C`, the Potency was inconclusive: 3.16 µM [inhibitor, single point]. In the case of `COc1ccc(C(=O)Cc2ccc(OC)c(OC)c2)cc1`, the Potency was inconclusive: 39.8 µM [inhibitor, single point]. In the case of `COC(=O)c1cc(NC(=O)Cc2cccs2)cc(C(=O)OC)c1`, the Potency was inconclusive: 13.4 µM [inhibitor, partial curve]. `COc1ccc2cnn(CCOc3cc(C)ccc3C(C)C)c(=O)c2c1OC` was tested, and the Potency was inconclusive: 7.94 µM [inhibitor, single point]. With `COc1ccc(OC)c(NC(=O)COC(=O)c2cc3c(s2)CCC3)c1` the Potency was “inactive”. `Cc1ccc2nc(N3CCN(S(=O)(=O)c4ccc5c(c4)OCCO5)CC3)c(C#N)cc2c1` was tested, and the Potency was inconclusive: 1 µM [inhibitor, full curve, poor fit]. For `COc1ccc(Cl)cc1NC(=O)C12CCC(C)(C(=O)O1)C2(C)C` (stereo unspecified), the Potency was inconclusive: 3.55 µM [inhibitor, partial curve]. `CC(C)CNC(=O)COC(=O)c1cccc(S(=O)(=O)NCC(F)(F)F)c1` was tested, and the Potency was inconclusive: 3.16 µM [inhibitor, partial curve]. `O=C(COC(=O)c1cccc(Br)c1)NCc1ccco1` was tested, and the Potency was inconclusive: 23.8 µM [inhibitor, partial curve]. In the case of `O=C(N/N=C/c1ccccn1)c1sc2ccccc2c1Cl`, the Potency was “inactive”. With `CCC(C)[C@H](NC(=O)c1cc2cc(Cl)ccc2n1C)C(=O)N1CCC(C(=O)O)CC1` (stereo partly specified) the Potency was inconclusive: 0.67 µM [inhibitor, single point]. `C=CCn1c(SCC(=O)NC(=O)NC2CCCC2)nnc1C1CCCCC1` was tested, and the Potency was “inactive”. For `CN1CCN(C(c2ccccn2)c2cc(Cl)c3cccnc3c2O)CC1` (stereo unspecified), the Potency was “inactive”.
